Substrate in the assay “mammalian two-hybrid”: CBP
Description: mammalian two-hybrid.

Another assay deals with PCAF. Description: mammalian two-hybrid.

Results are given in words; binding and its absence hold for the method and conditions named.

B1: VP16/6-6CL1 (protein)
chain: ENTPKENSMKVREWNNKGGHCCKLETQELEPKFNLMQILQDNGNLSKMQARIAFSAYLQHVQIRLMKDSGGQTFSASWAAKEDEQMELVVRFLKRASNNLQHSLRMVLPSRRLALLERRRILAHQLGDFIIVYNKETEQMAEKKSKKKVEEEEEDGVNMENFQEFIRQASEAELEEVLTFYTQKNKSASVFLGTHSKISKNNNNYSDSGAKG
Consider B1, for which the binding entry in the assay “mammalian two-hybrid” and in the assay with PCAF was “no binding” throughout.

These data come from US20070128627A1 (US Dept. of Health and Human Services, published 2007).
